Consider one compound from a compilation of properties of binary mixtures (doi:10.1007/s10953-017-0608-9).

The data set is described as follows: xn = mol fraction of the nth substance listed. The note with it: 101 kPa.

Some of these densities may be calculated back from excess volumes.

For the compound `CCCCCCCCn1cc[n+](C)c1.[Br-]` + O, the mass density is listed as 999.2 kg/m3 (288.15 K, x1 = 0.0001); 999.4 kg/m3 (288.15 K, x1 = 0.0002); 997.3 kg/m3 (298.15 K, x1 = 0.0001).

What is called mass density is mass per unit of volume.
